For this series, the system named is neuronal Hu proteins (endogenous, immunoprecipitated). Put plainly: binding assay. Particulars: UV cross-linking and immunoprecipitation (CLIP); one of SEQ 336-449; protein in cells.

The exact form of at least one protein or probe is not confirmed. At least one result comes from cells or an extract, where the contact may be indirect.

As for “AAACCAGUCCUUCCCUCCCAGCCAUUGCCAGGUGCCACCCGCUAAG [Hu CLIP fragment SEQ 336]”, the binding result is “binds”.

The values are drawn from patent publication US20050227251.
